Some of the results follow.
Tests used:
Test in all cases: log2 fold change, soluble protein after heating vs DMSO (PISA); higher = thermal stabilisation; K562 cells, 10 uM, 30 min; active = over 0.2 and 3.5 SD of the protein, either way, in both replicates (recomputed)
[1] = compound: COC1=CC=C(C=C1)CN2C=CC3=C2C=C(C=C3)C(=O)NO
Method in brief: (§1)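 Values are thermal stability changes relative to control samples and are taken from duplicates. They are stated as log2 fold changes. Before quantification by TMTpro 16plex LC-MS/MS with equalised channel sums, K562 cells at 2×10^6 cells/mL were treated with 10 μM compound for 30 min, heated in aliquots for 3 min across 48°C-58°C, pooled, extracted in PBS with 0.5% NP-40 at 4°C, and centrifuged at 21,000xg for 90 min to give the soluble supernatant.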

The chains behind the UniProt entries cited, without tags or fusion partners. Where a name states a change or a piece, a line headed by the entry shows the natural chain unless it says otherwise.
UniProt O43390: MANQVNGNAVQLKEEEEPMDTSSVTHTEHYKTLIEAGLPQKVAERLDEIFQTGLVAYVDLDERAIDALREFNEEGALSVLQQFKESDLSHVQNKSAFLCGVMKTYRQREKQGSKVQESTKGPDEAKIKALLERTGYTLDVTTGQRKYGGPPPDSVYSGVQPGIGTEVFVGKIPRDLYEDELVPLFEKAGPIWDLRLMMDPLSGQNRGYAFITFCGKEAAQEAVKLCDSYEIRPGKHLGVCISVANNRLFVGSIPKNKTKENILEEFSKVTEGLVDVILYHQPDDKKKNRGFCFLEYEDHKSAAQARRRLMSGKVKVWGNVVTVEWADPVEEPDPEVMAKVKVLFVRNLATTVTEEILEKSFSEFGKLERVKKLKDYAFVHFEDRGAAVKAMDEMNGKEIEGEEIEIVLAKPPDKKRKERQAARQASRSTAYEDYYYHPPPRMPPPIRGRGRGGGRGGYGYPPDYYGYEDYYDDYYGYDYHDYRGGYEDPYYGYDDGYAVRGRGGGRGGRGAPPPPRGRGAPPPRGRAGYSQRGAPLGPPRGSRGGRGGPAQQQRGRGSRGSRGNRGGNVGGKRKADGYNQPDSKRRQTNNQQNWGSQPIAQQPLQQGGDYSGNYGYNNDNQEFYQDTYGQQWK
UniProt Q9NQE9: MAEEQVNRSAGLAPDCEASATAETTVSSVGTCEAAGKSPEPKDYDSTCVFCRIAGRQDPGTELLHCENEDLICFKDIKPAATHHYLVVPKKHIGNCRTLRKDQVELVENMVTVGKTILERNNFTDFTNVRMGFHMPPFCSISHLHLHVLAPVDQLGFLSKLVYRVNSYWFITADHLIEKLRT
UniProt P14625, whole entry, looked up: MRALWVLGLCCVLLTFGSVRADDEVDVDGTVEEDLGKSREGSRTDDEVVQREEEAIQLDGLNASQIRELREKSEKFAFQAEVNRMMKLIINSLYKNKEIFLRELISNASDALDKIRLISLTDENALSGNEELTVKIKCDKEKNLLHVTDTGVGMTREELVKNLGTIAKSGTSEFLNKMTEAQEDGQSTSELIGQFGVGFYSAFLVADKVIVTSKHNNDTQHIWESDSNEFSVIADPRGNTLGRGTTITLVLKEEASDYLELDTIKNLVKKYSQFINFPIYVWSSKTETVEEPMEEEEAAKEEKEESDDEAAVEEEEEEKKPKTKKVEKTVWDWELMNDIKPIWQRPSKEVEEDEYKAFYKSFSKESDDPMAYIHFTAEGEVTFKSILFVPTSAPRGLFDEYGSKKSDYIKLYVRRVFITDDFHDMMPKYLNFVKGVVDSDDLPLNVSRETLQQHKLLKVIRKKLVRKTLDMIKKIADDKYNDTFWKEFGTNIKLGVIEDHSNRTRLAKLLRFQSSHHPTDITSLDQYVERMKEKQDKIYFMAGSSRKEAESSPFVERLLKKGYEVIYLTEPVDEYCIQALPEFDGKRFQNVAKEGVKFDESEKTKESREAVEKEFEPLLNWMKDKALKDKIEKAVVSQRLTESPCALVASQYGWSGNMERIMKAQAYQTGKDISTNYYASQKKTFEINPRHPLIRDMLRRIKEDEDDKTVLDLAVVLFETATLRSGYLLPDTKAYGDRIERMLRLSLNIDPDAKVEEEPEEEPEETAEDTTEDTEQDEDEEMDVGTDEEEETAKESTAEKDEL
UniProt Q6YN16: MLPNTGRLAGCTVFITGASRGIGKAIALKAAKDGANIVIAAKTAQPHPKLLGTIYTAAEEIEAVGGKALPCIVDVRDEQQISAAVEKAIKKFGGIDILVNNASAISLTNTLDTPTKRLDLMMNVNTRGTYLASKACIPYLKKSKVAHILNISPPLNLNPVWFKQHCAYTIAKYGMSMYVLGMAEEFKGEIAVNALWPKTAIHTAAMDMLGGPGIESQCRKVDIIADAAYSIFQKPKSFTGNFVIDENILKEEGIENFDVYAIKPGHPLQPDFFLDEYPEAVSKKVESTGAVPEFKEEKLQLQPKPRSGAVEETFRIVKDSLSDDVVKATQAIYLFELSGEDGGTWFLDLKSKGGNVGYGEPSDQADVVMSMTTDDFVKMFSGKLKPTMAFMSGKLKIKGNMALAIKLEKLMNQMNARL
UniProt P13598: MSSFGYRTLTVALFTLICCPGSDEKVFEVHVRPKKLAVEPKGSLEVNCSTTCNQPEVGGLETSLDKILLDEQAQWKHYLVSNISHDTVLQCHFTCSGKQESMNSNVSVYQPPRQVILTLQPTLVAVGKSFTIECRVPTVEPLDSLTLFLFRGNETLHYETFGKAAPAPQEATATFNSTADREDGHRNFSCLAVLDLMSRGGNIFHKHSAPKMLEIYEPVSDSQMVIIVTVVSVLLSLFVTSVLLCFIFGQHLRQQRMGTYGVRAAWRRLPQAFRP
UniProt P34931, whole entry, looked up: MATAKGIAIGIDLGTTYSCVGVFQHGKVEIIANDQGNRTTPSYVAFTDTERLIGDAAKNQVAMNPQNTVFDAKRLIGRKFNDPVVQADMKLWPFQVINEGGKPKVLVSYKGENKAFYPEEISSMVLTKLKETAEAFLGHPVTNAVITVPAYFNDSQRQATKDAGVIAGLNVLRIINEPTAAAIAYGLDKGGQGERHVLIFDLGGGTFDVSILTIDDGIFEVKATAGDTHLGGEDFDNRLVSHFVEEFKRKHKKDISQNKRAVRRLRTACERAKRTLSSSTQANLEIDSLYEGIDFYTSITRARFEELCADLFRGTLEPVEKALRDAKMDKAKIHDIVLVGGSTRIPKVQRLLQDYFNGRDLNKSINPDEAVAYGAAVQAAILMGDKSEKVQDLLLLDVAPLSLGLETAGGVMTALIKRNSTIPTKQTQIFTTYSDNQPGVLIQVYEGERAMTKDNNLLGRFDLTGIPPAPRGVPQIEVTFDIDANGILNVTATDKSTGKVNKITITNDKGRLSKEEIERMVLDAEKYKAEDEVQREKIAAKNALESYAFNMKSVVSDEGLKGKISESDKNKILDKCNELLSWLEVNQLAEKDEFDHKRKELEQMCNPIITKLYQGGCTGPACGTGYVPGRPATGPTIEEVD
UniProt Q0VDF9: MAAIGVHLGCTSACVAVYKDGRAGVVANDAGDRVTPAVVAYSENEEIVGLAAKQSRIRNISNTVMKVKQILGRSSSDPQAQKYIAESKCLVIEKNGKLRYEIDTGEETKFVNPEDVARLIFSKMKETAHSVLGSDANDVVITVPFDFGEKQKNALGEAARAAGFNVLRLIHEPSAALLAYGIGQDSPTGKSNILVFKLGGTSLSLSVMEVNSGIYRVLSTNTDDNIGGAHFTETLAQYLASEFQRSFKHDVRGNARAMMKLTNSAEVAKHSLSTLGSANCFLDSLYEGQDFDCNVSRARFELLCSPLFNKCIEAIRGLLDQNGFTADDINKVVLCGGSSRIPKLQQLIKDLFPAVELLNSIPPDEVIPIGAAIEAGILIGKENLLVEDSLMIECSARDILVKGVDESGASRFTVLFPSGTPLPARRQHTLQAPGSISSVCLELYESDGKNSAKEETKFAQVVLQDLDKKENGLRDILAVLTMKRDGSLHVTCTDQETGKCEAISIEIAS
UniProt P41252: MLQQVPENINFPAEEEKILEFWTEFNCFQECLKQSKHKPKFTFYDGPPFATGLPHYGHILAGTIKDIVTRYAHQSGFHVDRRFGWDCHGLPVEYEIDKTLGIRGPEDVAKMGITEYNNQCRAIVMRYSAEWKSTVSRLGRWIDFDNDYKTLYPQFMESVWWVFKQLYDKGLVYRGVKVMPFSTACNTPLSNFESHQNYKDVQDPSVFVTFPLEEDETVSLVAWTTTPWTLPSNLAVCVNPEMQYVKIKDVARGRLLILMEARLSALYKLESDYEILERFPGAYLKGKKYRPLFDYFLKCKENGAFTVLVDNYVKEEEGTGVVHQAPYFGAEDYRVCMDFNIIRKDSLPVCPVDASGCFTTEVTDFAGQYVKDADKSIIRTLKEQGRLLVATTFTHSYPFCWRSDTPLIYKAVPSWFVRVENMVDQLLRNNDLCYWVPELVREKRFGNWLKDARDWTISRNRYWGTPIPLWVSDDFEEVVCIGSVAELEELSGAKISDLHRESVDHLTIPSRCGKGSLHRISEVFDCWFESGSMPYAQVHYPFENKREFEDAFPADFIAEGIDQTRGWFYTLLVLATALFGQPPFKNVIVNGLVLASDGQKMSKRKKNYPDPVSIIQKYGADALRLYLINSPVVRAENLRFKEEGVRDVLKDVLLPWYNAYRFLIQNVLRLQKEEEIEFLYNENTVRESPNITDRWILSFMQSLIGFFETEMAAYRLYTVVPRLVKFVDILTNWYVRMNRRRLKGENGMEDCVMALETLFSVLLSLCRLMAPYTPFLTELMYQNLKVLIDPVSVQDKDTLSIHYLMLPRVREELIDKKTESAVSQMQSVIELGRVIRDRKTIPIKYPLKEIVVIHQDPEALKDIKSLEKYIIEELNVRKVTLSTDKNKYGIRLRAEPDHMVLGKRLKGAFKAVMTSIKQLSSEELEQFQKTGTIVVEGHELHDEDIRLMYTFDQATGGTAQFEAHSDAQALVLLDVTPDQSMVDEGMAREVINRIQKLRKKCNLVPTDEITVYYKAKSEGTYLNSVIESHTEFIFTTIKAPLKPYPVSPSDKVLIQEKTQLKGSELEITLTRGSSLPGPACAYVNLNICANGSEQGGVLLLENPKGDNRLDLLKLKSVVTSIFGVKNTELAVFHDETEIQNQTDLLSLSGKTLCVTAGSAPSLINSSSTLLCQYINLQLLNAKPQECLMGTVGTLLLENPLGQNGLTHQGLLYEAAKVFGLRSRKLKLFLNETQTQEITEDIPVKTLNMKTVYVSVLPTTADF
UniProt O43464: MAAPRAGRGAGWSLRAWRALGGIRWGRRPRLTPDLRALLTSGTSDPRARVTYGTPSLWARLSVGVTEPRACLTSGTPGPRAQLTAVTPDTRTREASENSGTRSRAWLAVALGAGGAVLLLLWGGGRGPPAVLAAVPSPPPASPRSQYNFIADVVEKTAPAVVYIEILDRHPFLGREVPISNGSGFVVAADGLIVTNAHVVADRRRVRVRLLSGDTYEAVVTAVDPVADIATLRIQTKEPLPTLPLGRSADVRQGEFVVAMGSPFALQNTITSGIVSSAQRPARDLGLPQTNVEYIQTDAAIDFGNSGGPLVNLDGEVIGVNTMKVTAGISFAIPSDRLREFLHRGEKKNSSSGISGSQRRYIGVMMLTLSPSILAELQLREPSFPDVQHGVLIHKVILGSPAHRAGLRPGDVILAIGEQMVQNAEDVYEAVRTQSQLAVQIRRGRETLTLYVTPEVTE
UniProt P10809, whole entry, looked up: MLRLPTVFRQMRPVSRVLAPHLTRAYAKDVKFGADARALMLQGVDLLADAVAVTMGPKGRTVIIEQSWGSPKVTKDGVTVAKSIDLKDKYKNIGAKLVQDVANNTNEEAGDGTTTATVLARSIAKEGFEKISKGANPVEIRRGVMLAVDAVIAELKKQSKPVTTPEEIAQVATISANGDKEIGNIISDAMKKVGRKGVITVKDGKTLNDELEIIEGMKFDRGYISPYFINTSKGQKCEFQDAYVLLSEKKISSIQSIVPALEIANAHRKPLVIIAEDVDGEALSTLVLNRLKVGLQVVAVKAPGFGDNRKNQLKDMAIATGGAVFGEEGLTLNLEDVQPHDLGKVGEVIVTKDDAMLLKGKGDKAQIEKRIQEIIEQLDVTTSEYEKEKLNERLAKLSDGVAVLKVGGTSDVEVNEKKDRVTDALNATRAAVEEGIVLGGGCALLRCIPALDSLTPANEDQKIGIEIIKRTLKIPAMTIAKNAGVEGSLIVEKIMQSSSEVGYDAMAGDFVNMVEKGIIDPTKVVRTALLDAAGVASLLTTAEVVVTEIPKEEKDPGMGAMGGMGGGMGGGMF
UniProt P50747: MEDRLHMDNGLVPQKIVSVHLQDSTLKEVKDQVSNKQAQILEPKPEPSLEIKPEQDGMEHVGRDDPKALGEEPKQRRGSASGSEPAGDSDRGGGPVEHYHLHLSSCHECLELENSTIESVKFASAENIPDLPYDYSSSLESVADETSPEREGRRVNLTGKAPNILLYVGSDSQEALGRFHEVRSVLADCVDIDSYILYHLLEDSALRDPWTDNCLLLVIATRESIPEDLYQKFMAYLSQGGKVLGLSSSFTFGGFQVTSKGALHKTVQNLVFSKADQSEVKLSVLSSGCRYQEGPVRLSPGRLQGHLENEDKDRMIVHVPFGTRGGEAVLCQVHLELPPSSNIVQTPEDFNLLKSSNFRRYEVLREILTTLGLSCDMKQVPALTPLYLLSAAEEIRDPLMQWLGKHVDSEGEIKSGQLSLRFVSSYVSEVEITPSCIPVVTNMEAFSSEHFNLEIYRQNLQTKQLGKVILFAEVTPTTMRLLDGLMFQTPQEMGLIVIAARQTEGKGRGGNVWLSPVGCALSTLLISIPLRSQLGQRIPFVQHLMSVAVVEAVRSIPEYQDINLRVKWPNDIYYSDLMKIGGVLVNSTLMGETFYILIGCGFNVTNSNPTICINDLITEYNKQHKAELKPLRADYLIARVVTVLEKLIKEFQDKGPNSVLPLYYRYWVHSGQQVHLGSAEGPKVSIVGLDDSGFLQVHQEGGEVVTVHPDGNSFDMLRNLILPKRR

filanesib = compound: CON(C)C(=O)N1N=C(c2cc(F)ccc2F)S[C@@]1(CCCN)c1ccccc1 [filanesib]
Method in brief: as §1

zotarolimus = compound: CO[C@H]1C[C@@H]2CC[C@@H](C)[C@@](O)(O2)C(=O)C(=O)N2CCCC[C@H]2C(=O)O[C@H]([C@H](C)C[C@@H]2CC[C@H](n3cnnn3)[C@H](OC)C2)CC(=O)[C@H](C)/C=C(\C)[C@@H](O)[C@@H](OC)C(=O)[C@H](C)C[C@H](C)/C=C/C=C/C=C/1C [zotarolimus]
Method in brief: as §1

idasanutlin = compound: COc1cc(C(=O)O)ccc1NC(=O)[C@@H]1N[C@@H](CC(C)(C)C)[C@](C#N)(c2ccc(Cl)cc2F)[C@H]1c1cccc(Cl)c1F [idasanutlin]
Method in brief: as §1

alisertib = compound: COc1cc(Nc2ncc3c(n2)-c2ccc(Cl)cc2C(c2c(F)cccc2OC)=NC3)ccc1C(=O)O [alisertib]
Method in brief: as §1

[2] = compound: COc1cc2nc(-c3cc(F)ccc3O)nc(N[C@@H]3CNC[C@H]3C(C)(C)O)c2cc1OC
Method in brief: as §1

gefitinib = compound: COc1cc2ncnc(Nc3ccc(F)c(Cl)c3)c2cc1OCCCN1CCOCC1 [gefitinib]
Method in brief: as §1

[3] = compound: COc1cccc2cc(-c3nc([C@H]4CC[C@H](C(=O)O)CC4)n4ncnc(N)c34)[nH]c12
Method in brief: as §1

lapatinib = compound: CS(=O)(=O)CCNCc1ccc(-c2ccc3ncnc(Nc4ccc(OCc5cccc(F)c5)c(Cl)c4)c3c2)o1 [lapatinib]
Method in brief: as §1

pictilisib = compound: CS(=O)(=O)N1CCN(Cc2cc3nc(-c4cccc5[nH]ncc45)nc(N4CCOCC4)c3s2)CC1 [pictilisib]
Method in brief: as §1

[4] = compound: CS(=O)(=O)c1ccc(-c2cnc(N)c(C(=O)Nc3ccccc3)n2)cc1
Method in brief: as §1

crizotinib = compound: C[C@@H](Oc1cc(-c2cnn(C3CCNCC3)c2)cnc1N)c1c(Cl)ccc(F)c1Cl [crizotinib]
Method in brief: as §1

[5] = compound: C[C@@H]1COCCN1C2=NC(=NC(=C2)C3(CC3)S(=O)(=O)C)C4=C5C=CNC5=CC=C4
Method in brief: as §1

[6] = compound: C[C@H](C1=CC=C(C=C1)C(=O)NC2=C3C=CNC3=NC=C2)N
Method in brief: as §1

duvelisib = compound: C[C@H](Nc1ncnc2nc[nH]c12)c1cc2cccc(Cl)c2c(=O)n1-c1ccccc1 [duvelisib]
Method in brief: as §1

gandotinib = compound: Cc1cc(Nc2cc(CN3CCOCC3)c3nc(C)c(Cc4ccc(Cl)cc4F)n3n2)n[nH]1 [gandotinib]
Method in brief: as §1

tozasertib = compound: Cc1cc(Nc2cc(N3CCN(C)CC3)nc(Sc3ccc(NC(=O)C4CC4)cc3)n2)n[nH]1 [tozasertib]
Method in brief: as §1

[7] = compound: Cc1cc(SCc2sc(-c3ccc(C(F)(F)F)cc3)nc2C)ccc1OCC(=O)O
Method in brief: as §1

doramapimod = compound: Cc1ccc(-n2nc(C(C)(C)C)cc2NC(=O)Nc2ccc(OCCN3CCOCC3)c3ccccc23)cc1 [doramapimod]
Method in brief: as §1

ispinesib = compound: Cc1ccc(C(=O)N(CCCN)[C@@H](c2nc3cc(Cl)ccc3c(=O)n2Cc2ccccc2)C(C)C)cc1 [ispinesib]
Method in brief: as §1

Measured: log2 fold change

HK1 isoform 2 (UniProt P19367)
inactive: [1] 0.041 | filanesib -0.044 | zotarolimus -0.021 | idasanutlin -0.01 | alisertib -0.021 | [2] 0.026 | gefitinib 0.016 | [3] 0.052 | lapatinib -0.074 | pictilisib -0.033 | [4] -0.031 | crizotinib 0.033 | [5] 0.041 | [6] -0.047 | duvelisib 0.021 | gandotinib -0.096 | tozasertib -0.019 | [7] -0.032 | doramapimod -0.016 | ispinesib 0.035

HNRNPR isoform 2 (UniProt O43390)
inactive: [1] -0.022 | filanesib 0.196 | zotarolimus -0.052 | idasanutlin 0.2 | alisertib -0.055 | [2] -0.051 | gefitinib -0.051 | [3] -0.051 | lapatinib 0.061 | pictilisib -0.042 | [4] -0.108 | crizotinib 0.014 | [5] -0.24 | [6] 0.172 | duvelisib -0.094 | gandotinib 0.102 | tozasertib 0.043 | [7] 0.07 | doramapimod 0.034 | ispinesib -0.197

IARS2 (UniProt Q9NSE4)
inactive: [1] 0.026 | filanesib -0.068 | zotarolimus -0.029 | idasanutlin -0.04 | alisertib -0.05 | [2] -0.016 | gefitinib 0.003 | [3] 0.065 | lapatinib 0.006 | pictilisib -0.039 | [4] 0.003 | crizotinib 0.029 | [5] 0.007 | [6] -0.073 | duvelisib 0.013 | gandotinib 0.025 | tozasertib -0.005 | [7] -0.03 | doramapimod -0.033 | ispinesib 0.03

HINT3 (UniProt Q9NQE9)
inactive: [1] -0.033 | filanesib -0.048 | zotarolimus -0.017 | idasanutlin 0.06 | alisertib -0.125 | [2] -0.112 | gefitinib 0.02 | [3] 0.071 | lapatinib 0 | pictilisib -0.055 | [4] -0.009 | crizotinib -0.026 | [5] -0.048 | [6] -0.162 | duvelisib 0.043 | gandotinib 0.099 | tozasertib -0.064 | [7] -0.017 | doramapimod -0.001 | ispinesib 0.004

HSP90B1 (UniProt P14625)
inactive: [1] -0.044 | filanesib -0.025 | zotarolimus 0 | idasanutlin 0.011 | alisertib -0.046 | [2] 0.01 | gefitinib 0.005 | [3] 0.004 | lapatinib -0.043 | pictilisib -0.057 | [4] 0.009 | crizotinib 0.054 | [5] 0.009 | [6] -0.015 | duvelisib 0.006 | gandotinib -0.021 | tozasertib -0.008 | [7] -0.021 | doramapimod 0 | ispinesib -0.004

HSPA1A (UniProt P0DMV8)
inactive: [1] -0.017 | filanesib 0.029 | zotarolimus 0.05 | idasanutlin 0.061 | alisertib -0.104 | [2] -0.011 | gefitinib 0.03 | [3] -0.001 | lapatinib -0.021 | pictilisib -0.106 | [4] 0.002 | crizotinib 0.039 | [5] -0.105 | [6] 0.044 | duvelisib -0.037 | gandotinib -0.076 | tozasertib -0.017 | [7] -0.055 | doramapimod -0.003 | ispinesib 0.046

HSPBP1 isoform 3 (UniProt Q9NZL4)
inactive: [1] 0.033 | filanesib -0.032 | zotarolimus 0.033 | idasanutlin -0.098 | alisertib -0.082 | [2] -0.038 | gefitinib -0.001 | [3] -0.039 | lapatinib 0.037 | pictilisib -0.004 | [4] 0.023 | crizotinib -0.003 | [5] 0.031 | [6] -0.018 | duvelisib 0.034 | gandotinib -0.143 | tozasertib 0.087 | [7] 0.033 | doramapimod -0.052 | ispinesib 0.06

HSDL2 (UniProt Q6YN16)
inactive: [1] 0.02 | filanesib -0.104 | zotarolimus 0.022 | idasanutlin -0.19 | alisertib -0.024 | [2] -0.03 | gefitinib 0.047 | [3] 0.02 | lapatinib 0.043 | pictilisib 0.01 | [4] 0.002 | crizotinib -0.049 | [5] 0.094 | [6] -0.079 | duvelisib 0.013 | gandotinib 0.038 | tozasertib -0.049 | [7] 0.064 | doramapimod -0.074 | ispinesib 0.043

ICAM2 (UniProt P13598)
inactive: [1] 0.012 | filanesib 0.026 | zotarolimus -0.012 | idasanutlin 0.094 | alisertib -0.056 | [2] -0.069 | gefitinib 0.019 | [3] 0.038 | lapatinib -0.024 | pictilisib 0.028 | [4] 0.033 | crizotinib 0.051 | [5] 0.013 | [6] -0.183 | duvelisib 0.018 | gandotinib 0.017 | tozasertib -0.023 | [7] -0.072 | doramapimod 0.005 | ispinesib -0.091

HSPA1L (UniProt P34931)
inactive: [1] -0.191 | filanesib 0.07 | zotarolimus -0.004 | idasanutlin 0.118 | alisertib -0.084 | [2] 0.051 | gefitinib -0.046 | [3] -0.05 | lapatinib -0.011 | pictilisib -0.033 | [4] 0.131 | crizotinib 0.053 | [5] -0.001 | [6] 0.188 | duvelisib 0.054 | gandotinib -0.281 | tozasertib -0.124 | [7] -0.155 | doramapimod 0.005 | ispinesib 0.019

HSPA14 (UniProt Q0VDF9)
inactive: [1] -0.03 | filanesib 0.072 | zotarolimus 0.012 | idasanutlin 0.02 | alisertib -0.07 | [2] 0.042 | gefitinib 0.004 | [3] -0.094 | lapatinib -0.044 | pictilisib -0.033 | [4] 0 | crizotinib -0.084 | [5] -0.034 | [6] 0.143 | duvelisib -0.013 | gandotinib -0.042 | tozasertib -0.001 | [7] 0.083 | doramapimod 0.091 | ispinesib -0.136

IARS (UniProt P41252)
inactive: [1] -0.023 | filanesib 0.417 | zotarolimus 0.081 | idasanutlin 0.111 | alisertib -0.089 | [2] 0 | gefitinib -0.018 | [3] -0.196 | lapatinib 0.131 | pictilisib -0.088 | [4] 0.096 | crizotinib -0.119 | [5] -0.309 | [6] 0.464 | duvelisib -0.097 | gandotinib 0.109 | tozasertib 0.019 | [7] 0.121 | doramapimod 0.321 | ispinesib -0.342

HTRA2 (UniProt O43464)
inactive: [1] 0.022 | filanesib -0.018 | zotarolimus -0.02 | idasanutlin -0.014 | alisertib -0.153 | [2] 0.029 | gefitinib 0.019 | [3] 0.027 | lapatinib 0.007 | pictilisib -0.083 | [4] 0.022 | crizotinib 0.055 | [5] 0.039 | [6] -0.045 | duvelisib 0.035 | gandotinib 0.007 | tozasertib 0.015 | [7] -0.039 | doramapimod -0.039 | ispinesib -0.016

HSPD1 (UniProt P10809)
inactive: [1] -0.011 | filanesib -0.056 | zotarolimus -0.023 | idasanutlin 0.007 | alisertib -0.06 | [2] 0.012 | gefitinib 0.014 | [3] 0.032 | lapatinib -0.054 | pictilisib -0.033 | [4] 0.004 | crizotinib 0.038 | [5] 0.032 | [6] -0.008 | duvelisib -0.013 | gandotinib -0.025 | tozasertib -0.023 | [7] -0.043 | doramapimod -0.006 | ispinesib 0.007

HMCN1 (UniProt Q96RW7)
inactive: [1] -0.194 | filanesib 0.121 | zotarolimus 0.062 | idasanutlin -0.069 | alisertib -0.006 | [2] 0.025 | gefitinib -0.098 | [3] 0.379 | lapatinib 0.029 | pictilisib -0.221 | [4] -0.286 | crizotinib -0.023 | [5] -0.021 | [6] 0.144 | duvelisib -0.318 | gandotinib -0.353 | tozasertib -0.041 | [7] -0.249 | doramapimod 0.063 | ispinesib -0.001

HLCS (UniProt P50747)
inactive: [1] -0.012 | filanesib -0.029 | zotarolimus 0.002 | idasanutlin -0.086 | alisertib -0.09 | [2] 0.027 | gefitinib 0.045 | [3] -0.01 | lapatinib 0 | pictilisib 0.098 | [4] 0.032 | crizotinib 0.037 | [5] 0.033 | [6] -0.05 | duvelisib -0.002 | gandotinib -0.028 | tozasertib 0.041 | [7] 0.022 | doramapimod -0.008 | ispinesib 0.033

Source: the supplement of paper PMC10849652
